Measured values published in the supplement of paper PMC10849652.
The other results are listed elsewhere or left out.

By UniProt entry, the sequences of proteins in these tests, tags left out. Where a name states a change or a piece, a line headed by the entry shows the natural chain unless it says otherwise.
UniProt Q8WYQ5: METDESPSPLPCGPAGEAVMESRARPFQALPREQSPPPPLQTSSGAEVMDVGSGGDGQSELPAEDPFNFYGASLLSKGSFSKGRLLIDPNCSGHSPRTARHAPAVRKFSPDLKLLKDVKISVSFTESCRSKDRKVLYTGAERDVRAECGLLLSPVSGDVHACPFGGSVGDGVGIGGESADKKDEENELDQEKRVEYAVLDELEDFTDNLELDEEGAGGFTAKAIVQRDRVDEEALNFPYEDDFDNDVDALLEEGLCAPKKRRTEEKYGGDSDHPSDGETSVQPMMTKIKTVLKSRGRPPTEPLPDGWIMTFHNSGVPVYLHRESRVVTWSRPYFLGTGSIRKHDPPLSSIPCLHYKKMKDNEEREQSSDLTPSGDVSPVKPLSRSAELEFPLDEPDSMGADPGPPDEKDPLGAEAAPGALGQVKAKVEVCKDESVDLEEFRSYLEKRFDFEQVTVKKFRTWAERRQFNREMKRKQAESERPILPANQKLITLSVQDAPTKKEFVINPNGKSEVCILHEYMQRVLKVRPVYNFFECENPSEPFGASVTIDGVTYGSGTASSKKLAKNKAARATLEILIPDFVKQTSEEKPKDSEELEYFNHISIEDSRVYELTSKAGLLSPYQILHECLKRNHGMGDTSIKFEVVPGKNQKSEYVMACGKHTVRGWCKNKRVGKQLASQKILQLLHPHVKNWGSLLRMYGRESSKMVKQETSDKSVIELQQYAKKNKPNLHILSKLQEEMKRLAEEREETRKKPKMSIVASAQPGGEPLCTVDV
UniProt O00273: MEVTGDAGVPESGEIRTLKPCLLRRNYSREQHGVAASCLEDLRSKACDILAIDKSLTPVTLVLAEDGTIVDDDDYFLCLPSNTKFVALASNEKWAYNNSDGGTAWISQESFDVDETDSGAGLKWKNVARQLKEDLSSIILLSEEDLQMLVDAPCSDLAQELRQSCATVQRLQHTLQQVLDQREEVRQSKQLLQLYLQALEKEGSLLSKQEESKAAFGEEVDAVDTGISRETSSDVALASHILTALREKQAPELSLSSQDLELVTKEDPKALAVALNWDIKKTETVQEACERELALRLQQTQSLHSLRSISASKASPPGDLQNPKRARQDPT
UniProt O60832: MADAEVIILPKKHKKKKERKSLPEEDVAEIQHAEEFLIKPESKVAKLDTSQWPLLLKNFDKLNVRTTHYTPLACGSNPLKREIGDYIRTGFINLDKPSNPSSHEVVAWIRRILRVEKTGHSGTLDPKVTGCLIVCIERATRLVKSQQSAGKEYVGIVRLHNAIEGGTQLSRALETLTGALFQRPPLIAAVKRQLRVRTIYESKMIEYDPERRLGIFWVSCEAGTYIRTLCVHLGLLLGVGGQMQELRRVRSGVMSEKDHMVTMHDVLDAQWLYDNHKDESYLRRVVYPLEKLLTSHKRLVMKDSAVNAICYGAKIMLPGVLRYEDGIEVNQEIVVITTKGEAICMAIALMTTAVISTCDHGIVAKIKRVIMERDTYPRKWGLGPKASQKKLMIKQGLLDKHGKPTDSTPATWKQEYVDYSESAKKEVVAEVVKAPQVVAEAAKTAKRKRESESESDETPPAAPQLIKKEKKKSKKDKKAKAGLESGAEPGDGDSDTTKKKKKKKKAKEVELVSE
UniProt Q15398: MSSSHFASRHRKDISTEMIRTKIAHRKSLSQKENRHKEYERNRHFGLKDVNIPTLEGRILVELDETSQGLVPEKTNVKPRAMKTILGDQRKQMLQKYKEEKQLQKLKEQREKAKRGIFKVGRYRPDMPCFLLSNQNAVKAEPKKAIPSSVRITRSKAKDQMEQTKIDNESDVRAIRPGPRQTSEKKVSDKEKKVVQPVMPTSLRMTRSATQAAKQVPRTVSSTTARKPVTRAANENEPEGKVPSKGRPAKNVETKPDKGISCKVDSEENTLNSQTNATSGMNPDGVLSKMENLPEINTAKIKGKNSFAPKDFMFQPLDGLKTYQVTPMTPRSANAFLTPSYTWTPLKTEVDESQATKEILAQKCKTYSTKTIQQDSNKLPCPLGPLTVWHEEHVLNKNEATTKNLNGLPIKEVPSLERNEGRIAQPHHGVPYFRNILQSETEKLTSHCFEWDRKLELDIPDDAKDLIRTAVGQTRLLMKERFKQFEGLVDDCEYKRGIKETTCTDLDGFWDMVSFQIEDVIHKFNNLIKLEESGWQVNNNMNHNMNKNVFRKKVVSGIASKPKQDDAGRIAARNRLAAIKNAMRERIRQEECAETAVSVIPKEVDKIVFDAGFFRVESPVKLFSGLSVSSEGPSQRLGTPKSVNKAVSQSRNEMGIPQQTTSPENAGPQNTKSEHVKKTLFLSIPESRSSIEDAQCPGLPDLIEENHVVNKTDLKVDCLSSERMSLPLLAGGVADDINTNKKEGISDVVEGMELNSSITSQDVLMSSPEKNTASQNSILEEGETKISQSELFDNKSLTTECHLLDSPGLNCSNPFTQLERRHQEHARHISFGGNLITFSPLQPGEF
UniProt Q9NVP1: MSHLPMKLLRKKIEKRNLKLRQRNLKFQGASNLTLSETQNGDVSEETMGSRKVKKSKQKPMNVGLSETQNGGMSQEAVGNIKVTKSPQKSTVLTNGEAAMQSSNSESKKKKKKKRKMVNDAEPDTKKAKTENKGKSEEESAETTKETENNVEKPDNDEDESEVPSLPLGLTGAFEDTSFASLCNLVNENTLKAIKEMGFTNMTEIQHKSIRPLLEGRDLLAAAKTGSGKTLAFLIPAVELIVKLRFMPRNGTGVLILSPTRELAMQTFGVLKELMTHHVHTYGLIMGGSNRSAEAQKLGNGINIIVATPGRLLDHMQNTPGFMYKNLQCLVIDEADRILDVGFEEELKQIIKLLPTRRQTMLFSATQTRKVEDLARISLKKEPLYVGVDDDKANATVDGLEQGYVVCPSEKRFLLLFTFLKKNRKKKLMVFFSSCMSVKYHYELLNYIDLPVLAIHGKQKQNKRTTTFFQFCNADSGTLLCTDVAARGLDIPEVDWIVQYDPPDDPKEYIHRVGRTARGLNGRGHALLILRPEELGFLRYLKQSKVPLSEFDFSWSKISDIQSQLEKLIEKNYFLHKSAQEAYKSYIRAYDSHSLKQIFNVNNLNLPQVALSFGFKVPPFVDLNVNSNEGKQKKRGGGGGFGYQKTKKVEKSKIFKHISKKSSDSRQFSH
UniProt Q9Y2H0: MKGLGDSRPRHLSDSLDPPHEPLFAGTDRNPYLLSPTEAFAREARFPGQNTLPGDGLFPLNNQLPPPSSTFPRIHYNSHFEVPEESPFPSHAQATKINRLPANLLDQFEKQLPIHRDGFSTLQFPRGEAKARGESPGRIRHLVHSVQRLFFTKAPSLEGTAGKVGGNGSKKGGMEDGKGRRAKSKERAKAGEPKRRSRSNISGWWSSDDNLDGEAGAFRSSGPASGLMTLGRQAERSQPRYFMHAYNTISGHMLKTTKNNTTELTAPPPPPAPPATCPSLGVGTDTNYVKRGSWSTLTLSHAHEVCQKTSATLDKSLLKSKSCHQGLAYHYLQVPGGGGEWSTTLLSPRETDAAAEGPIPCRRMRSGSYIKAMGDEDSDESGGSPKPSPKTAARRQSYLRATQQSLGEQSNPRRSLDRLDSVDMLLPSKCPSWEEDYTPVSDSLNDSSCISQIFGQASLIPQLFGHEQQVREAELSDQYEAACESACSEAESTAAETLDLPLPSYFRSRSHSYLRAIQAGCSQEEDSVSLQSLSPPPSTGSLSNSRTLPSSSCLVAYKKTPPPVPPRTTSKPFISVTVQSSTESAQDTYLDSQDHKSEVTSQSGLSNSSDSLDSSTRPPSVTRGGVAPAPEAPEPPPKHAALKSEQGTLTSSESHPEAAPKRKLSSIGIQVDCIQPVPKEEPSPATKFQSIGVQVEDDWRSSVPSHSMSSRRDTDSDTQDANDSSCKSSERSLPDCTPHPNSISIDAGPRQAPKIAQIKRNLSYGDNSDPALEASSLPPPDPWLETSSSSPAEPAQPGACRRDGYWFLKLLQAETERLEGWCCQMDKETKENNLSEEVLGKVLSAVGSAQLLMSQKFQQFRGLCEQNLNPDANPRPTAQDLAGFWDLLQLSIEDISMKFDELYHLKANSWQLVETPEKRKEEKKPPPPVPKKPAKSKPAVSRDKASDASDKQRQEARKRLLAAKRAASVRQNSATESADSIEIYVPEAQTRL
UniProt Q7Z478: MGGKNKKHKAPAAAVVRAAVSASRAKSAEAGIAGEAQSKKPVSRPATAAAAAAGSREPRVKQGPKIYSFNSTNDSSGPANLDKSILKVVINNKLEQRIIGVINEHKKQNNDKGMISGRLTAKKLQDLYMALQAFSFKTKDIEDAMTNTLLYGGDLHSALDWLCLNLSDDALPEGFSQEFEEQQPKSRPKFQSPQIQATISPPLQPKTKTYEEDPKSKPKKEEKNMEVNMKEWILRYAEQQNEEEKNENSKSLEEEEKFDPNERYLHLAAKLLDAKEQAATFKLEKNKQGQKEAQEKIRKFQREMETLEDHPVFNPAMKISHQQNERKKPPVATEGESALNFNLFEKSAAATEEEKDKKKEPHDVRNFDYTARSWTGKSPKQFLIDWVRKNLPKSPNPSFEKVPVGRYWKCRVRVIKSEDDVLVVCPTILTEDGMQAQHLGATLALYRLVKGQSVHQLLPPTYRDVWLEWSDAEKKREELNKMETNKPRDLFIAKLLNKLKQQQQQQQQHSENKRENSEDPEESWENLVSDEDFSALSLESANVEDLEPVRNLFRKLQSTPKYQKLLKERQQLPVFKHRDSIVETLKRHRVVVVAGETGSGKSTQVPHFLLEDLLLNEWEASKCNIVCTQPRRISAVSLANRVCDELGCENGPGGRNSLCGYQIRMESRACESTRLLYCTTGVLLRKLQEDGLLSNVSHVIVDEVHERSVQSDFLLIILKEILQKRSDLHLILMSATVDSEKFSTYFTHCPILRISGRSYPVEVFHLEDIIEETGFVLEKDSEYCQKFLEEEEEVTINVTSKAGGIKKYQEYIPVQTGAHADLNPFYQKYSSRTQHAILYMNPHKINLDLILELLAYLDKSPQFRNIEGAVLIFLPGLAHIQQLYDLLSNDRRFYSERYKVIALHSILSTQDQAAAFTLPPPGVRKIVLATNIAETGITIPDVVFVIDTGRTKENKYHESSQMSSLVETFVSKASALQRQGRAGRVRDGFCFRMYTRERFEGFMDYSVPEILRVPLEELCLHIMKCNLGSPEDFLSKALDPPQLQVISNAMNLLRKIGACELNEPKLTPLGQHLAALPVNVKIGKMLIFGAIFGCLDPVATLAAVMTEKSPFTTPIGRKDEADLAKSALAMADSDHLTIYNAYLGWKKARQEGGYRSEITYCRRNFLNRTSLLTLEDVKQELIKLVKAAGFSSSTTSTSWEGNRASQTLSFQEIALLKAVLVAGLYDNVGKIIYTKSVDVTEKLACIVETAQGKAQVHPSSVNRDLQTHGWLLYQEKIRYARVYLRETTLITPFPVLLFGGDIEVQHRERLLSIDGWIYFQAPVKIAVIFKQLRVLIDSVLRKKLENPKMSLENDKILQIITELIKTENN
UniProt Q86Y56: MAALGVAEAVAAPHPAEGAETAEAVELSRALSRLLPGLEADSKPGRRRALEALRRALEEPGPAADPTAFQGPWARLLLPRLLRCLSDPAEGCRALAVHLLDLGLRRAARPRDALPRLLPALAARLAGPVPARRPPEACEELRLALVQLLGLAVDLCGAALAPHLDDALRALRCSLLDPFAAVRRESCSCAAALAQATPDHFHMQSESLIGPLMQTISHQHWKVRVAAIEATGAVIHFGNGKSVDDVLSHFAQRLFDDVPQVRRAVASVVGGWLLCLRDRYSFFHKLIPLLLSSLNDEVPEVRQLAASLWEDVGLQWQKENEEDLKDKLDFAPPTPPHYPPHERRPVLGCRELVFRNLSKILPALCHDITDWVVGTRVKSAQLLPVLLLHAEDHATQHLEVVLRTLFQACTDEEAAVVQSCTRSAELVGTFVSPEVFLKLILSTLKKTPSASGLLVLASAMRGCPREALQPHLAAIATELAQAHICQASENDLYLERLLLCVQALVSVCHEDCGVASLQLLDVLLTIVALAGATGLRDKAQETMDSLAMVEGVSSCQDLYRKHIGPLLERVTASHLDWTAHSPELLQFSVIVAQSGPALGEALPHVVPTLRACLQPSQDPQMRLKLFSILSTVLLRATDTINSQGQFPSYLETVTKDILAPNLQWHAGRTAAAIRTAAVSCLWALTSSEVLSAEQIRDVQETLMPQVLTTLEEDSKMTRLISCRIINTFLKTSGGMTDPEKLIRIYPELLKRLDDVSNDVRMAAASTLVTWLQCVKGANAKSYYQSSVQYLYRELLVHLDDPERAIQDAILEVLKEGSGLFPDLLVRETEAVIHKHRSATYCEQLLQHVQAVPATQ

compound: c1cn2cc(-c3ccc4cn[nH]c4c3)nc(Nc3ccc(N4CCOCC4)cc3)c2n1 [entospletinib]; assay: log2 fold change, soluble protein after heating vs DMSO (PISA); higher = thermal stabilisation; K562 cells, 10 uM, 30 min; active = over 0.2 and 3.5 SD of the protein, either way, in both replicates (recomputed)
How it was run: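 Quantification of soluble protein used TMTpro 16plex LC-MS/MS, with channel sums equalised. Samples were the supernatant after 21,000xg for 90 min of pooled aliquots from K562 cells (2×10^6 cells/mL) treated with 10 μM compound for 30 min, heated for 3 min over 48°C-58°C, and extracted in PBS with 0.5% NP-40 at 4°C. Values, from duplicates, describe thermal stability against control samples on a log2 fold-change scale.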

log2 fold change, inactive:
DGCR8 (UniProt Q8WYQ5) -0.085
DECR1 (UniProt Q16698) -0.021
DDX17 (UniProt Q92841) 0.06
DFFA (UniProt O00273) -0.035
DKC1 (UniProt O60832) 0.031
DLGAP5 (UniProt Q15398) 0.01
DDA1 (UniProt Q9BW61) 0.007
DLC1 (UniProt Q96QB1) -0.129
DDI2 isoform 3 (UniProt Q5TDH0) 0.032
DDX18 (UniProt Q9NVP1) 0.05
DDX20 (UniProt Q9UHI6) 0.193
DNAH8 (UniProt Q96JB1) 0.185
DHTKD1 (UniProt Q96HY7) -0.046
DLGAP4 (UniProt Q9Y2H0) 0.023
DHX29 (UniProt Q7Z478) 0.018
DIS3L (UniProt Q8TF46) 0.115
DIS3L2 (UniProt Q8IYB7) -0.028
DMKN (UniProt Q6E0U4) -0.132
DECR2 (UniProt Q9NUI1) 0.223
DHRS2 (UniProt Q13268) -0.029
DDX3X (UniProt O00571) 0.309
DGUOK (UniProt Q16854) -0.022
DNAAF5 (UniProt Q86Y56) 0.179
DGKZ (UniProt Q13574) -0.001

Not a retest: entries from further up.
log2 fold change, inactive:
DECR2 (UniProt Q9NUI1) 0.223
DHRS2 (UniProt Q13268) -0.029
DDX3X (UniProt O00571) 0.309
DGUOK (UniProt Q16854) -0.022
DNAAF5 (UniProt Q86Y56) 0.179
